Some of the results follow. Single values are uncertain, as repeats are few or missing.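 Imaging used 1,536-well plates; nuclei positive for cleaved PARP by antibody were divided by total DNA-stained nuclei to yield the apoptosis fraction. Doses for screening kept most cells viable, and cell lines differ markedly in resting and induced cleaved-PARP levels.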
Legend:
Assay in all cases: cleaved PARP positive nuclei fraction relative to DMSO control; melanoma cells; higher = more apoptosis
Settings in all cases: library dose: low library concentration; 72 h
501Mel = test system: 501Mel
A101D = test system: A101D
A2058 = test system: A2058
A375 = test system: A375
C32 = test system: C32
CBRC008 = test system: CBRC008 (line from a melanoma biopsy)
CBRC013 = test system: CBRC013 (line from a melanoma biopsy)
CBRC014 = test system: CBRC014 (line from a melanoma biopsy)
CBRC016 = test system: CBRC016 (line from a melanoma biopsy)
CBRC017 = test system: CBRC017 (line from a melanoma biopsy)
COLO792 = test system: COLO792
COLO800 = test system: COLO800
COLO829 = test system: COLO829
G361 = test system: G361
IPC-298 = test system: IPC-298
IST-MEL1 = test system: IST-MEL1
LB2518-MEL = test system: LB2518-MEL
LOXIMVI = test system: LOXIMVI
MEL-HO = test system: MEL-HO

SMILES: NC(=O)Nc1cc(-c2cccc(F)c2)sc1C(=O)N[C@H]1CCCNC1 + Cn1cncc1[C@@](N)(c1ccc(Cl)cc1)c1ccc2c(c1)c(-c1cccc(Cl)c1)cc(=O)n2C [tipifarnib] (first compound 0.02 µM, partner dose 0.01 µM)
- cleaved PARP positive nuclei fraction (501Mel): 52.4%
- cleaved PARP positive nuclei fraction (A101D): 179%
- cleaved PARP positive nuclei fraction (A2058): 74.2%
- cleaved PARP positive nuclei fraction (A375): 626%
- cleaved PARP positive nuclei fraction (C32): 169%
- cleaved PARP positive nuclei fraction (CBRC008): 171%
- cleaved PARP positive nuclei fraction (CBRC013): 88.8%
- cleaved PARP positive nuclei fraction (CBRC014): 110%
- cleaved PARP positive nuclei fraction (CBRC016): 234%
- cleaved PARP positive nuclei fraction (CBRC017): 99.1%
- cleaved PARP positive nuclei fraction (COLO792): 102%
- cleaved PARP positive nuclei fraction (COLO800): 98.8%
- cleaved PARP positive nuclei fraction (COLO829): 125%
- cleaved PARP positive nuclei fraction (G361): 123%
- cleaved PARP positive nuclei fraction (IPC-298): 84.3%
- cleaved PARP positive nuclei fraction (IST-MEL1): 122%
- cleaved PARP positive nuclei fraction (LB2518-MEL): 95.2%
- cleaved PARP positive nuclei fraction (LOXIMVI): 22.7%
- cleaved PARP positive nuclei fraction (MEL-HO): 72.1%

SMILES: Clc1ccc(Nc2nnc(Cc3ccncc3)c3ccccc23)cc1 [vatalanib] + C=CCn1c(=O)c2cnc(Nc3ccc(N4CCN(C)CC4)cc3)nc2n1-c1cccc(C(C)(C)O)n1 [MK1775] (first compound 2 µM, partner dose 0.02 µM)
- cleaved PARP positive nuclei fraction (501Mel): 110%
- cleaved PARP positive nuclei fraction (A101D): 118%
- cleaved PARP positive nuclei fraction (A2058): 51.1%
- cleaved PARP positive nuclei fraction (A375): 390%
- cleaved PARP positive nuclei fraction (C32): 91.5%
- cleaved PARP positive nuclei fraction (CBRC008): 433%
- cleaved PARP positive nuclei fraction (CBRC013): 99.8%
- cleaved PARP positive nuclei fraction (CBRC014): 160%
- cleaved PARP positive nuclei fraction (CBRC016): 214%
- cleaved PARP positive nuclei fraction (CBRC017): 101%
- cleaved PARP positive nuclei fraction (COLO792): 119%
- cleaved PARP positive nuclei fraction (COLO800): 215%
- cleaved PARP positive nuclei fraction (COLO829): 149%
- cleaved PARP positive nuclei fraction (G361): 178%
- cleaved PARP positive nuclei fraction (IPC-298): 48.5%
- cleaved PARP positive nuclei fraction (IST-MEL1): 153%
- cleaved PARP positive nuclei fraction (LB2518-MEL): 102%
- cleaved PARP positive nuclei fraction (LOXIMVI): 63.4%
- cleaved PARP positive nuclei fraction (MEL-HO): 117%

SMILES: NC(=O)Nc1cc(-c2cccc(F)c2)sc1C(=O)N[C@H]1CCCNC1 + C[C@@H]1CCN(C(=O)CC#N)C[C@@H]1N(C)c1ncnc2[nH]ccc12 [CP690550] (first compound 0.02 µM, partner dose 1 µM)
- cleaved PARP positive nuclei fraction (501Mel): 70.4%
- cleaved PARP positive nuclei fraction (A101D): 114%
- cleaved PARP positive nuclei fraction (A2058): 96.5%
- cleaved PARP positive nuclei fraction (A375): 436%
- cleaved PARP positive nuclei fraction (C32): 74.4%
- cleaved PARP positive nuclei fraction (CBRC008): 88.1%
- cleaved PARP positive nuclei fraction (CBRC013): 100%
- cleaved PARP positive nuclei fraction (CBRC014): 82.5%
- cleaved PARP positive nuclei fraction (CBRC016): 115%
- cleaved PARP positive nuclei fraction (CBRC017): 92.6%
- cleaved PARP positive nuclei fraction (COLO792): 79.8%
- cleaved PARP positive nuclei fraction (COLO800): 57.8%
- cleaved PARP positive nuclei fraction (COLO829): 74.1%
- cleaved PARP positive nuclei fraction (G361): 96%
- cleaved PARP positive nuclei fraction (IPC-298): 121%
- cleaved PARP positive nuclei fraction (IST-MEL1): 46%
- cleaved PARP positive nuclei fraction (LB2518-MEL): 70.5%
- cleaved PARP positive nuclei fraction (LOXIMVI): 88.2%
- cleaved PARP positive nuclei fraction (MEL-HO): 27.3%

SMILES: Cn1nnc2c(C(N)=O)ncn2c1=O [temozolomide] + C=CCn1c(=O)c2cnc(Nc3ccc(N4CCN(C)CC4)cc3)nc2n1-c1cccc(C(C)(C)O)n1 [MK1775] (first compound 2 µM, partner dose 0.02 µM)
- cleaved PARP positive nuclei fraction (501Mel): 85.4%
- cleaved PARP positive nuclei fraction (A101D): 111%
- cleaved PARP positive nuclei fraction (A2058): 303%
- cleaved PARP positive nuclei fraction (A375): 161%
- cleaved PARP positive nuclei fraction (C32): 159%
- cleaved PARP positive nuclei fraction (CBRC008): 105%
- cleaved PARP positive nuclei fraction (CBRC013): 124%
- cleaved PARP positive nuclei fraction (CBRC014): 115%
- cleaved PARP positive nuclei fraction (CBRC016): 78.3%
- cleaved PARP positive nuclei fraction (CBRC017): 101%
- cleaved PARP positive nuclei fraction (COLO792): 320%
- cleaved PARP positive nuclei fraction (COLO800): 202%
- cleaved PARP positive nuclei fraction (COLO829): 83.7%
- cleaved PARP positive nuclei fraction (G361): 53.5%
- cleaved PARP positive nuclei fraction (IPC-298): 108%
- cleaved PARP positive nuclei fraction (IST-MEL1): 115%
- cleaved PARP positive nuclei fraction (LB2518-MEL): 47.2%
- cleaved PARP positive nuclei fraction (LOXIMVI): 47.9%
- cleaved PARP positive nuclei fraction (MEL-HO): 141%

SMILES: CC(=O)c1c(C)c2cnc(Nc3ccc(N4CCNCC4)cn3)nc2n(C2CCCC2)c1=O [palbociclib] + C=CCn1c(=O)c2cnc(Nc3ccc(N4CCN(C)CC4)cc3)nc2n1-c1cccc(C(C)(C)O)n1 [MK1775] (first compound 0.04 µM, partner dose 0.02 µM)
- cleaved PARP positive nuclei fraction (501Mel): 96%
- cleaved PARP positive nuclei fraction (A101D): 113%
- cleaved PARP positive nuclei fraction (A2058): 44%
- cleaved PARP positive nuclei fraction (A375): 357%
- cleaved PARP positive nuclei fraction (C32): 153%
- cleaved PARP positive nuclei fraction (CBRC008): 78.4%
- cleaved PARP positive nuclei fraction (CBRC013): 61.9%
- cleaved PARP positive nuclei fraction (CBRC014): 111%
- cleaved PARP positive nuclei fraction (CBRC016): 163%
- cleaved PARP positive nuclei fraction (CBRC017): 76.8%
- cleaved PARP positive nuclei fraction (COLO792): 94.9%
- cleaved PARP positive nuclei fraction (COLO800): 104%
- cleaved PARP positive nuclei fraction (COLO829): 109%
- cleaved PARP positive nuclei fraction (G361): 109%
- cleaved PARP positive nuclei fraction (IPC-298): 47.4%
- cleaved PARP positive nuclei fraction (IST-MEL1): 113%
- cleaved PARP positive nuclei fraction (LB2518-MEL): 128%
- cleaved PARP positive nuclei fraction (LOXIMVI): 119%
- cleaved PARP positive nuclei fraction (MEL-HO): 42%

SMILES: C[C@]1(c2nc3c(C(N)=O)cccc3[nH]2)CCCN1 [Veliparib] + CO[C@@H]1[C@H](N(C)C(=O)c2ccccc2)C[C@H]2O[C@]1(C)n1c3ccccc3c3c4c(c5c6ccccc6n2c5c31)C(=O)NC4 [Midostaurin] (first compound 1.4 µM, partner dose 0.08 µM)
- cleaved PARP positive nuclei fraction (501Mel): 66.1%
- cleaved PARP positive nuclei fraction (A101D): 168%
- cleaved PARP positive nuclei fraction (A2058): 120%
- cleaved PARP positive nuclei fraction (A375): 207%
- cleaved PARP positive nuclei fraction (C32): 165%
- cleaved PARP positive nuclei fraction (CBRC008): 361%
- cleaved PARP positive nuclei fraction (CBRC013): 91.4%
- cleaved PARP positive nuclei fraction (CBRC014): 102%
- cleaved PARP positive nuclei fraction (CBRC016): 231%
- cleaved PARP positive nuclei fraction (CBRC017): 138%
- cleaved PARP positive nuclei fraction (COLO792): 101%
- cleaved PARP positive nuclei fraction (COLO800): 204%
- cleaved PARP positive nuclei fraction (COLO829): 106%
- cleaved PARP positive nuclei fraction (G361): 118%
- cleaved PARP positive nuclei fraction (IPC-298): 45.4%
- cleaved PARP positive nuclei fraction (IST-MEL1): 126%
- cleaved PARP positive nuclei fraction (LB2518-MEL): 201%
- cleaved PARP positive nuclei fraction (LOXIMVI): 43.3%
- cleaved PARP positive nuclei fraction (MEL-HO): 32.3%

SMILES: C#Cc1cccc(Nc2ncnc3cc(OCCOC)c(OCCOC)cc23)c1 [erlotinib] + CC1(C)NC(=O)N(c2ccc([N+](=O)[O-])c(C(F)(F)F)c2)C1=O [nilutamide] (first compound 0.8 µM, partner dose 1 µM)
- cleaved PARP positive nuclei fraction (501Mel): 111%
- cleaved PARP positive nuclei fraction (A101D): 86.9%
- cleaved PARP positive nuclei fraction (A2058): 90.9%
- cleaved PARP positive nuclei fraction (A375): 57.6%
- cleaved PARP positive nuclei fraction (C32): 63.4%
- cleaved PARP positive nuclei fraction (CBRC008): 87.7%
- cleaved PARP positive nuclei fraction (CBRC013): 98.4%
- cleaved PARP positive nuclei fraction (CBRC014): 96.1%
- cleaved PARP positive nuclei fraction (CBRC016): 27.3%
- cleaved PARP positive nuclei fraction (CBRC017): 104%
- cleaved PARP positive nuclei fraction (COLO792): 94.6%
- cleaved PARP positive nuclei fraction (COLO800): 50.9%
- cleaved PARP positive nuclei fraction (COLO829): 57.8%
- cleaved PARP positive nuclei fraction (G361): 35.2%
- cleaved PARP positive nuclei fraction (IPC-298): 94.6%
- cleaved PARP positive nuclei fraction (IST-MEL1): 45.7%
- cleaved PARP positive nuclei fraction (LB2518-MEL): 85.7%
- cleaved PARP positive nuclei fraction (LOXIMVI): 27.7%
- cleaved PARP positive nuclei fraction (MEL-HO): 91.7%

SMILES: CC(C)(C)c1cnc(CSc2cnc(NC(=O)C3CCNCC3)s2)o1 + O=C(O)c1ccc(-c2c[nH]c3ncc(-c4ccccc4)cc23)cc1C1CCCC1 [GSK650394] (first compound 0.01 µM, partner dose 0.16 µM)
- cleaved PARP positive nuclei fraction (501Mel): 85.1%
- cleaved PARP positive nuclei fraction (A101D): 129%
- cleaved PARP positive nuclei fraction (A2058): 80.3%
- cleaved PARP positive nuclei fraction (A375): 124%
- cleaved PARP positive nuclei fraction (C32): 108%
- cleaved PARP positive nuclei fraction (CBRC008): 366%
- cleaved PARP positive nuclei fraction (CBRC013): 109%
- cleaved PARP positive nuclei fraction (CBRC014): 77.4%
- cleaved PARP positive nuclei fraction (CBRC016): 86%
- cleaved PARP positive nuclei fraction (CBRC017): 103%
- cleaved PARP positive nuclei fraction (COLO792): 70.4%
- cleaved PARP positive nuclei fraction (COLO800): 155%
- cleaved PARP positive nuclei fraction (COLO829): 126%
- cleaved PARP positive nuclei fraction (G361): 123%
- cleaved PARP positive nuclei fraction (IPC-298): 82.1%
- cleaved PARP positive nuclei fraction (IST-MEL1): 60.2%
- cleaved PARP positive nuclei fraction (LB2518-MEL): 46.8%
- cleaved PARP positive nuclei fraction (LOXIMVI): 24.6%
- cleaved PARP positive nuclei fraction (MEL-HO): 217%

Reference: the supplement of paper PMC4604168 (melanoma cell lines)
